# Results taken from publication PMC7862700.
# Amino acid sequences for entries named in this document (tags omitted). A change or cut given only in a name is not applied to a line headed by its entry.
# UniProt Q00613: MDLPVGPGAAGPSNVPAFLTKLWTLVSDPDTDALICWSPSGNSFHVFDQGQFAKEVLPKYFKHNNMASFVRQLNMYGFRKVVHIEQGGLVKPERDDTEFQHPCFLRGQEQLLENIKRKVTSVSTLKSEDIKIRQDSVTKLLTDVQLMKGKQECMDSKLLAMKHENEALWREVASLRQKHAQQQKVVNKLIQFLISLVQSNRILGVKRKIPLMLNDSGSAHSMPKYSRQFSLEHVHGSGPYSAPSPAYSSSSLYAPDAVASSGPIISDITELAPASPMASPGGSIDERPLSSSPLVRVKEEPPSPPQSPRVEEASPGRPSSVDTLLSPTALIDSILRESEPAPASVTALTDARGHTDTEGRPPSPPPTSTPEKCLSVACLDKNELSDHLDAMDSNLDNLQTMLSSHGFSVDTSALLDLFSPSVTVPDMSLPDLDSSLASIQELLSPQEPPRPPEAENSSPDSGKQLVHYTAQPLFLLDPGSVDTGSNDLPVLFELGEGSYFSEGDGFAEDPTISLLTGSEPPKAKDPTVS
# Only a part is listed here, and it is no random draw. For part of these data: At the low end of the ranking, values are background and their order means little. The list shows a part of the results. For part of these data: The exact form of the protein is not confirmed.
# Experiments:
# HSF1 = HSF1 (UniProt Q00613); experiment: DAPPL (digital affinity profiling via proximity ligation, sequencing); details: 10 mM Tris-HCl pH 7.5, 50 mM NaCl, 1 mM DTT, 4% glycerol, room temperature, 30 min; GST-TFs on glutathione beads, 16-mer random dsDNA library, 0.1% …; high values mean tight binding; double strand, one strand shown; scale: fold enrichment (6-mer frequency, TF over GST control)
# ELF2 = molecular target: T1, ELF2 (UniProt Q15723); experiment: as above; details: 10 mM Tris-HCl pH 7.5, 50 mM NaCl, 1 mM DTT, 4% glycerol, room temperature, 30 min; GST-TFs on glutathione beads, 16-mer random dsDNA library, 0.1% …; high values mean tight binding; double strand, one strand shown; scale: fold enrichment (6-mer frequency, TF over GST control)
# T1 sequence: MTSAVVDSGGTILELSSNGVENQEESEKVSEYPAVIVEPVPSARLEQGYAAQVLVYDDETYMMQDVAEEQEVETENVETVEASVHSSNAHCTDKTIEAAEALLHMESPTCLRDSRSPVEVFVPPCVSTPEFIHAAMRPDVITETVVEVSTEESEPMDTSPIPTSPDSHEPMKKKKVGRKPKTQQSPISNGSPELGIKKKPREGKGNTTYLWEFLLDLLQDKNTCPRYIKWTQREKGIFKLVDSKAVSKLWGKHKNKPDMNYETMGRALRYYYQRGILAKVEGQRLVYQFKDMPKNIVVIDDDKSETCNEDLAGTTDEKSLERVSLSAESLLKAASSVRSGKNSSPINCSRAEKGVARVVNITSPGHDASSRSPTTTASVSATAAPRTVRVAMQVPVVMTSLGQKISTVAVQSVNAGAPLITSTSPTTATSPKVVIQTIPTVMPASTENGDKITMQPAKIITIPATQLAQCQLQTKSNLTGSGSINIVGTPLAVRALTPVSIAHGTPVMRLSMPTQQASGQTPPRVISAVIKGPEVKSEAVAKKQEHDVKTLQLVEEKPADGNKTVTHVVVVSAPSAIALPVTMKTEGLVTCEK
Sequence,binding signal (HSF1),binding signal (ELF2)
GTCCGC,0.709,1.07
TGCATC,0.938,1.36
ATTATA,2.05,1.29
TAGATG,1.66,1.16
CCCCTG,0.954,1.17
AATTTG,1.26,1.24
